Test results: US10556924 (dated 2020)

Experiment: general procedure: Fmoc solid-phase peptide synthesis; CTC resin
Details: whole synthesis

Cyclo[Phe-{4-(OCO—NH—CH2—CH2—NH2) Pro}-Phg-DTrp-Lys-Tyr(Bzl)]
final purity (method not given): 99.9%
